Results on two sequences are retold here after article PMC3988186.

By UniProt entry, the sequences of proteins in these tests, tags left out.
UniProt P32121, whole entry: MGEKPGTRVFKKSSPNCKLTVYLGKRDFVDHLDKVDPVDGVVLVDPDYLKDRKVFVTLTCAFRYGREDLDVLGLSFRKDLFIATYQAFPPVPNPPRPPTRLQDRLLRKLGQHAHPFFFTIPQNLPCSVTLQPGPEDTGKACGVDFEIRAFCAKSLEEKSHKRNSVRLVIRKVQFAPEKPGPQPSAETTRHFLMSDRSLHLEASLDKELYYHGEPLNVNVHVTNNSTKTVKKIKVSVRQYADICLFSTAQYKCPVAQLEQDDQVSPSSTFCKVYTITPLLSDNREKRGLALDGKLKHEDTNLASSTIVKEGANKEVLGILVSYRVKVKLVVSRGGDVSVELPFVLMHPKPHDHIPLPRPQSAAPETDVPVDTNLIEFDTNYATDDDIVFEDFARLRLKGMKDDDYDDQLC

For at least one entry, the source does not settle the construct or the ends of the probe. At least one result comes from cells or an extract, where the contact may be indirect.

Data set [1] addresses beta-arrestin 2 (endogenous, K562 cells) (Homo sapiens (K562 cell line)) (UniProt P32121). In words: streptavidin pull-down + immunoblot. To be noted: 200 nM chimera internalized by K562 cells 24 h, then lysed; 2'-F pyrimidines in RNA strand; Kd assay buffer not stated separately; selection buffer F: 20 mM HEPES pH 7.4, 150 mM NaCl, 1 mM CaCl2, 1 mM MgCl2, 0.01% BSA, 37 C; protein in an extract; label: 5' biotin (maleimide) on …. On the technique in general: Immunoblotting shows a protein as a band on a membrane.

The target is the same in data set [2]. In words: anti-beta-arrestin 2 IP + northern blot. To be noted: 200 nM chimera internalized by K562 cells 6 h, then lysed; 2'-F pyrimidines in RNA strand; Kd assay buffer not stated separately; selection buffer F: 20 mM HEPES pH 7.4, 150 mM NaCl, 1 mM CaCl2, 1 mM MgCl2, 0.01% BSA, 37 C; protein in an extract.

Take “GGGAGGACGAUGCGGAUCCUCGUCCCGUCACGGCAGAACCACGUCAGGCCUUCAACAGACGACUCGCUGAGGAUCCGAGA / TGGTGGTGGTGGTTGTGGTGGTGGTGG [nucleolin aptamer-beta-arr2A3 chimera, 5'-biotin]”: the binding result in data set [1] is reported as “binds”.

Turning to “GGGAGGACGAUGCGGAUCCUCGUCCCGUCACGGCAGAACCACGUCAGGCCUUCAACAGACGACUCGCUGAGGAUCCGAGA / TGGTGGTGGTGGTTGTGGTGGTGGTGG [nucleolin aptamer-beta-arr2A3 chimera, unlabeled]”, the binding result in data set [2] was “binds”.
